Test results as given in paper PMC8854428.
Results are given in words; binding and its absence hold for the method and conditions named. In cells and extracts the contact can be indirect. Some results given as binding are weak or reduced against the parent protein; the word gives no strength. Where a sequence is shown, tags or fusion partners need not be part of it.

Amino acid sequences for entries named in this document (tags omitted).
UniProt P56962: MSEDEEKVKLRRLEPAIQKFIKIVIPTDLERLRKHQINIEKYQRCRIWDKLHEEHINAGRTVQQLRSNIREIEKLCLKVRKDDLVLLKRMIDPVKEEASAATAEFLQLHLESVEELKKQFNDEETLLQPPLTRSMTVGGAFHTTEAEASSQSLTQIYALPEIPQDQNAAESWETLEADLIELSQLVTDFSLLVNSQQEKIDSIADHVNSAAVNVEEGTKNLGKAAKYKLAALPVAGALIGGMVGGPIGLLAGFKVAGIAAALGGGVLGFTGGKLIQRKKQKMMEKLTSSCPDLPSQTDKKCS

T1: Flag-tagged Snap29 (mouse) (UniProt Q9ERB0)
T1 sequence: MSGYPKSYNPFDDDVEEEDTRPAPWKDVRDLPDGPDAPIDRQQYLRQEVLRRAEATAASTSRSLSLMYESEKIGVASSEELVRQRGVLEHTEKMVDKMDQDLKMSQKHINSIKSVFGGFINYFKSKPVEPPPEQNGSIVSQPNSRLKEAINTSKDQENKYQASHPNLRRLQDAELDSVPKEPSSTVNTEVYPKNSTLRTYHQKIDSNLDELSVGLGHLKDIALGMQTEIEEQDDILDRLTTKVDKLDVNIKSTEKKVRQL


Biological target: T1, Flag-tagged Snap29 (mouse)
Assay: co-IP; Flag-Snap29 transfected into shCtrl or shKANSL1 HeLa cells, EBSS 2 h, with or without 13-cis retinoic acid pretreatment (5 uM, 24 h); lysed in M2 buffer; anti-Flag M2 affinity gel overnight at 4 °C, five washes, eluted with 3x FLAG peptide; western blot

binding | Molecule
binds | STX17 (from UniProt P56962 1-302)
binds | STX7 (protein, UniProt O15400 1-261) MSYTPGVGGDPAQLAQRISSNIQKITQCSVEIQRTLNQLGTPQDSPELRQQLQQKQQYTNQLAKETDKYIKEFGSLPTTPSEQRQRKIQKDRLVAEFTTSLTNFQKVQRQAAEREKEFVARVRASSRVSGSFPEDSSKERNLVSWESQTQPQVQVQDEEITEDDLRLIHERESSIRQLEADIMDINEIFKDLGMMIHEQGDVIDSIEANVENAEVHVQQANQQLSRAADYQRKSRKTLCIIILILVIGVAIISLIIWGLNH
binds | YKT6 (protein, UniProt O15498 1-198) MKLYSLSVLYKGEAKVVLLKAAYDVSSFSFFQRSSVQEFMTFTSQLIVERSSKGTRASVKEQDYLCHVYVRNDSLAGVVIADNEYPSRVAFTLLEKVLDEFSKQVDRIDWPVGSPATIHYPALDGHLSRYQNPREADPMTKVQAELDETKIILHNTMESLLERGEKLDDLVSKSEVLGTQSKAFYKTARKQNSCCAIM
